Laboratory results published in PubChem BioAssay AID2685 (National Center for Advancing Translational Sciences (NCATS), 2010).
The other results are listed elsewhere or left out. These are further read-outs of the screen, such as a control signal, another cell line or another target. No call is given for them. The list favours compounds with an active or inconclusive main result. Words in brackets tell the shape of the fitted curve; partial curves, single points and poor fits give uncertain potencies.

Assay: qHTS Assay for Lipid Storage Modulators in Drosophila S3 Cells;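 for cell number change: cells counted by Cell Tracker Red CMTPX staining in the red channel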
Conditions: BODIPY lipid droplet fluorescence, 18-24 h; for cell number change: measured here: cell count max response, cells fed with added oleic acid
Excerpt: NIH Molecular Libraries Probe Production Centers Network [MLPCN] NIH Chemical Genomics Center [NCGC] MLPCN Grant: 1 R03 MH085686-01 Assay Submitter (PI): Beller, Mathias; Max-Planck-Institut fur Biophysikalische Chemie NCGC Assay Overview: Storing lipids as a reservoir for energy or the anabolism of elementary metabolites is a common feature of probably all cells and is conserved from bacteria to humans. The universal cellular lipid storage organelle is the so-called lipid storage droplet (LD). Although ubiquitous, LDs share a simple structure composed of a hydrophobic core that harbors the storage lipids, which is shielded by a droplet-specific phospholipid monolayer to which proteins are attached. The current model of LD biogenesis involves an incorporation of the lipid core into the membrane leaflets of the endoplasmic reticulum (ER) followed by a subsequent budding-like maturation of a LD, which ultimately pinches off. Once released, LD volume can increase by localized lipogenesis or fusion of existing droplet. Storage lipids are re-mobilized enzymatically by lipase activity. Lipase regulation in the adipocyte is heavily studied and involves multiple components including catecholamine signaling, the LD-associated proteins Perilipin and comparative gene identification (CGI-58) and at least two lipases named hormone sensitive lipase (HSL) and adipocyte triglyceride lipase (ATGL). LD regulation outside of the adipocyte is poorly understood and only few components are known. However, there is an urgent need to learn more about ectopic fat depots as mislocalized storage of lipids, for example in the liver or muscle, is an eminent health problem associated with insulin resistance or the metabolic syndrome. We developed a laser-scanning cytometer assay to enable 1,536-well screening and combined the results of the small molecules screen with an RNAi database based on lipid storage.
Triacsin C (Sigma-Aldrich T-4540), an inhibitor of long-chain fatty acyl CoA synthetase that blocks synthesis of triglycerides, was used as a positive control for lipid under-storage. A total of 23 nL of compound solution of different concentrations were transferred to the assay plates using a Kalypsys pin tool equipped with a 1,536-pin array containing 10-nL slotted pins (FP1S10, 0.457-mm diameter, 50.8 mm long; V&P Scientific). One microliter of oleic acid (400 uM) was added, and the plate was lidded with stainless steel rubber gasket lined lids containing pinholes. […] Fluorescence was detected by excitation of the fluorophores with a 488-nm laser on an Acumen Explorer (TTP Lab Tech). The total intensity in channel 2 (500-530 nm) reflected lipid droplet accumulation. Cells were detected using channel 3 (575-640 nm) with 5-um width and 100-um depth filters. The ratio of the number of objects in PMT channel 2 over the number of objects in PMT channel 3 was also calculated. Percent activity was computed relative to an internal control (100% inhibited lipid droplet deposition due to the presence of 20 uM Triacsin C), which was added to 32 wells/plate.

[1] = measured here: lipid fluorescence (Fed channel) AC50, cells fed with added oleic acid
[2] = measured here: cell number channel AC50, cells fed with added oleic acid

Row | SMILES | cell number change | AC50 [1] | AC50 [2]
1 | O=C1Nc2ccccc2Nc2ncccc21 | -11% | – | –
2 | COc1ccc(CN2CC(=O)N(c3ccc(Cl)cc3)C2=S)cc1OC | – | 6.51 µM [rising, single point] | –
3 | Cc1cccc(-c2nc(CS(=O)CC(=O)NC(C)CCc3ccccc3)c(C)o2)c1 (stereo unspecified) | – | – | 1.64 µM [rising, partial curve]
4 | CS(=O)(=O)N1CCC(C(=O)NCc2ccco2)CC1 | -15.1% | 29.1 µM [falling, single point] | –
5 | CC1=NNC(=O)C1CC(=O)N/N=C/C(Br)=C/c1ccccc1 (stereo unspecified) | – | – | 0.82 µM [rising, partial curve, poor fit]
6 | C=CCn1c(SCC(=O)NC(=O)Cc2ccccc2)nc2ccccc2c1=O | 17.4% | 32.6 µM [falling, single point] | –
7 | O=C(Cn1ccc2ccccc2c1=O)NCCC(=O)Nc1ccc(F)cc1F | -2.86% | – | –
8 | Cc1cc2c(c(=O)o1)C1O[C@](c3ccsc3)(Cc3cc(C#N)ccc31)O2 | 17.2% | – | –
9 | NS(=O)(=O)c1ccc(-n2cccc2C=O)cc1 | 10.5% | 18.4 µM [falling, partial curve] | –
10 | C=CCNC(=O)c1onc(CSc2cccc(OC)c2)c1C(=O)NCC=C | 9.67% | 0.0259 µM [rising, full curve, poor fit] | –
11 | CC(=O)Oc1ccc(-c2csc(Nc3ccc(Cl)cn3)n2)cc1 | -53% | 2.91 µM [falling, single point] | 20.6 µM [falling, partial curve]
12 | N#Cc1ccsc1NC(=O)CCc1ccccc1 | 28.1% | 5.8 µM [rising, full curve] | –
13 | CCOC(=O)c1[nH]c2ccc(OC)cc2c1NC(=O)c1nonc1C | -20.4% | – | –
14 | CCOC(=O)c1sc(NC(=O)CCc2ccc(OC)cc2)nc1C | -1.32% | – | –
15 | O=S(=O)(c1ccc(F)cc1)c1nc(-c2ccco2)oc1Nc1ccccc1 | 12.9% | 1.84 µM [rising, partial curve] | 0.206 µM [falling, full curve, poor fit]
16 | CCC(C)NC(=O)C1CCN(S(=O)(=O)c2cc([N+](=O)[O-])ccc2Cl)CC1 (stereo unspecified) | 9.36% | 29.1 µM [rising, single point] | –
17 | O=C(COC(=O)Cn1cc(C(F)(F)F)ccc1=O)Nc1ccc(Br)cc1F | -15.3% | – | –
18 | CCc1ccc(NC(=O)C(NS(=O)(=O)c2ccc3c(c2)CCN3C(C)=O)C(C)C)cc1 (stereo unspecified) | 34.2% | 29.1 µM [falling, single point] | 29.1 µM [rising, single point]
19 | O=C(CCNC(=O)c1ccccc1Cl)Nc1cccc(S(=O)(=O)N2CCOCC2)c1 | -3.89% | 0.82 µM [falling, full curve] | –
20 | O=C(NCCc1cccc(F)c1)C1CCN(S(=O)(=O)c2ccccc2)CC1 | 47.2% | – | 29.1 µM [rising, single point]
21 | COc1ccccc1N1CCN(C(=O)CSc2nc3ccccc3nc2N2CCCCC2)CC1 | -12.7% | 32.6 µM [falling, single point] | –

Row | SMILES | cell number change | AC50 [1] | AC50 [2]
22 | O=c1c2ccccc2cnn1Cc1n[nH]c(=S)n1-c1ccc(Cl)cc1 | -18.8% | – | 3.26 µM [falling, single point]
23 | Cn1c(NC(=O)/C=C/c2ccc(Cl)c(Cl)c2)cc(=O)n(C)c1=O | 118% | 14.6 µM [rising, partial curve, poor fit] | 0.651 µM [rising, full curve]
24 | COc1cc(C(=O)Nc2cccnc2)cc(OC)c1OC | 15% | 29.1 µM [rising, single point] | –
25 | NS(=O)(=O)c1ccc(CCNC(=O)CCC(=O)c2cccs2)cc1 | -1.24% | 6.51 µM [rising, partial curve, poor fit] | –
26 | CCN(Cc1ccccc1)S(=O)(=O)c1ccc(C(=O)N(CCCN(C)C)c2nc3c(F)cccc3s2)cc1 | 10.3% | – | 0.00411 µM [rising, full curve, poor fit]
27 | COc1ccc(CN=CC2=C(O)CC(C)(C)CC2=O)cc1 | -60.8% | – | 29.1 µM [falling, single point]
28 | CC(=O)N1c2ccc(S(=O)(=O)NCCc3ccc(Cl)cc3)cc2CC1C (stereo unspecified) | – | 20.6 µM [falling, partial curve] | –
29 | COc1ccc(NC(C#N)c2ccc(OC)cc2)cc1 (stereo unspecified) | 6.01% | 29.1 µM [rising, single point] | –
30 | O=[N+]([O-])c1ccccc1Nc1ccc(O)cc1 | -30.8% | 25.9 µM [falling, single point] | 23.1 µM [falling, single point]
31 | O=C(c1ccco1)N1CCN(C2CC(=O)N(c3ccc4c(c3)OCO4)C2=O)CC1 (stereo unspecified) | – | 1.64 µM [falling, partial curve] | –
32 | CS(=O)(=O)NCc1ccc(C(=O)O)cc1 | -12.2% | 0.058 µM [falling, full curve, poor fit] | –
33 | Cc1ccc2cc(C#N)c(N3CCCN(C(=O)C4CCCO4)CC3)nc2c1C (stereo unspecified) | 15.7% | 1.84 µM [falling, partial curve, poor fit] | –
34 | Cc1ccc(C(=O)CSc2nc3ccc(C(=O)NCCN4CCCCC4)cc3c(=O)[nH]2)cc1 | 14.3% | 29.1 µM [rising, single point] | –
35 | CCOC(=O)CSc1nnc(CCc2nc3ccccc3[nH]2)n1C | -12.4% | – | –
36 | CC(C(=O)c1ccc(-c2ccccc2)cc1)[n+]1cccc(Br)c1 (stereo unspecified) | -3.55% | – | –
37 | CCOC(=O)c1cccc(-n2c(C)nc3ccccc3c2=O)c1 | -29.8% | 16.4 µM [falling, single point] | –
38 | Cc1ccc2cccc(Oc3ccc([N+](=O)[O-])cc3[N+](=O)[O-])c2n1 | -46.5% | 18.4 µM [falling, partial curve] | 6.51 µM [falling, partial curve, poor fit]
39 | O=C(CSc1ccc2ccccc2n1)Nc1ccc(N2CCOCC2)cc1 | – | 0.13 µM [falling, full curve, poor fit] | –
40 | O=C(O)C1CCCN(C(=O)c2cccc3ccccc23)C1 (stereo unspecified) | 27.5% | – | –
41 | CCOc1ccc(N2CC(C(=O)N/N=C/c3sccc3C)CC2=O)cc1 (stereo unspecified) | 0.599% | 13 µM [rising, partial curve] | –
42 | CC(C)N(C(=O)Cc1ccccc1[N+](=O)[O-])C(C)C | 6.6% | 29.1 µM [falling, single point] | –

Row | SMILES | cell number change | AC50 [1] | AC50 [2]
43 | CSc1nnc(-c2cccc(C)c2)n1N | 32.4% | – | 10.3 µM [rising, partial curve, poor fit]
44 | CCCCN(C)C1CCN(C(=S)Nc2ccc(OC)cc2)CC1 | – | 4.11 µM [falling, single point] | –
45 | COc1cc(-c2nnc(-c3ccc(S(=O)(=O)c4ccccc4)cc3)o2)cc(OC)c1OC | 67.6% | 6.51 µM [rising, full curve, poor fit] | 5.8 µM [rising, partial curve]
46 | CN1CCCCc2c1nc1c(c2N)CCCC1 | 3.96% | 0.0184 µM [falling, full curve, poor fit] | –
47 | CC(=O)N(C)C1(c2nnnn2CCOC(=O)Nc2ccc(Cl)cc2)CCCCC1 | 79.9% | 6.51 µM [rising, single point] | 16.4 µM [rising, single point]
48 | CC1=C(C(=O)OC2CCCCC2)C(c2ccccc2Br)NC(=O)N1 (stereo unspecified) | -19.4% | 10.3 µM [falling, single point] | –
49 | Cn1c(=O)oc2cc(S(=O)(=O)NCCC(=O)NCCc3ccc(Cl)cc3)ccc21 | 259% | 20.6 µM [rising, partial curve] | 20.6 µM [rising, single point]
50 | Cc1cc(NCCCN2CCOCC2)n2ncc(-c3ccc(Cl)cc3)c2n1 | 1.1% | – | –
51 | CCC(=O)c1c(NCCc2ccccc2)cc(C)oc1=O | -20.1% | 1.46 µM [falling, partial curve] | 0.00517 µM [falling, full curve, poor fit]
52 | Cc1cc(C)n(-c2nnc(NC34CC5CC(CC(C5)C3)C4)nn2)n1 | -84.6% | 4.61 µM [falling, full curve] | 20.6 µM [falling, partial curve]
53 | CCN(CC(=O)Nc1ccccc1C(F)(F)F)C(=O)C1=COCCO1 | -33.3% | – | 0.731 µM [falling, full curve, poor fit]
54 | COC(=O)c1cn(C(C)C(=O)NCc2ccco2)c2ccccc12 (stereo unspecified) | 11.9% | – | –
55 | CCOC(=O)c1cc(-c2ccc(OC)cc2)nc2c1c(C)nn2CCC#N | -0.402% | – | 1.3 µM [rising, full curve, poor fit]
56 | COc1ccc(-c2nnc3n(CCc4ccccc4)c(=O)c4ccccc4n23)cc1OC | 34.4% | 29.1 µM [rising, single point] | 29.1 µM [rising, single point]
57 | CC(C)OC(=O)CSc1nnc(-c2cccnc2)n1Cc1ccccc1 | 110% | 4.61 µM [rising, partial curve] | 3.26 µM [rising, full curve]
58 | C/C(=N\NC(=O)c1nn(C)cc1Br)c1cccc(NC(=O)C(C)(C)C)c1 | -13.2% | – | –
59 | O=C(C/C=N/OCc1c(Cl)cccc1Cl)c1ccccc1 | 17.7% | – | 3.26 µM [rising, single point]
60 | CNC(=S)N1CCN(c2nc(-c3ccc(Cl)cc3)cs2)CC1 | -0.777% | 1.3 µM [falling, full curve] | –
61 | CCOc1ccc(CN(C)C(=O)CNC(=O)c2ccc3ccccc3c2)cc1OC | -2.02% | 0.58 µM [rising, single point] | –

Random excerpt: three entries already listed.
Row | SMILES | cell number change | AC50 [1] | AC50 [2]
23 | Cn1c(NC(=O)/C=C/c2ccc(Cl)c(Cl)c2)cc(=O)n(C)c1=O | 118% | 14.6 µM [rising, partial curve, poor fit] | 0.651 µM [rising, full curve]
5 | CC1=NNC(=O)C1CC(=O)N/N=C/C(Br)=C/c1ccccc1 (stereo unspecified) | – | – | 0.82 µM [rising, partial curve, poor fit]
60 | CNC(=S)N1CCN(c2nc(-c3ccc(Cl)cc3)cs2)CC1 | -0.777% | 1.3 µM [falling, full curve] | –
